The test system of the series is PPARgamma + RXRalpha. Kind of series: EMSA. As to conditions: mutated probe, complex abolished; 5-15 ug TC-7 nuclear extract, 25 mM HEPES (pH not stated), 100 mM KCl, 0.1% NP-40, 1 mM DTT, 5% glycerol, 1 ug poly(dI-dC), 20 fmol probe in 20 ul; protein in an extract; label: 5'-32P.

The exact form of at least one protein or probe is not confirmed. At least one result comes from cells or an extract, where the contact may be indirect. A negative result means that nothing was seen under these conditions. At least one verdict rests on a figure or table, not on a statement of the authors.

Regarding “GCTTGGAAATTATGCTTTATGCAAACAT (double strand) [BCMO1 PPRE mutated]”, the binding result is given as “no binding”.

Source of the values: publication PMC1526748.
